Some peptides are written in HELM: one residue between dots, names in brackets for other building blocks, links after the first $.

From patent publication US5721210A (priority 1995, dated 1998) come the findings set out here.

A short description of data set [1]: general procedure: Boc solid-phase peptide synthesis; BOC-Cys(S-p-methylbenzyl)-Merrifield resin; BOC-Ser(Bzl)OCH2-PAM resin; 4-methylbenzhydrylamine resin; DCC (0.5M in DCM); BOP/DIEA for on-resin cyclization. Conditions: whole synthesis, acetate.
A short description of data set [2]: general procedure: Boc solid-phase peptide synthesis; BOC-Ser(Bzl)OCH2-PAM resin; DCC (0.5M in DCM); BOP/DIEA for on-resin cyclization. Conditions: whole synthesis, scale 0.75 mmol, acetate.

In the case of “PEPTIDE1{C.G.R.G.D.S.P.C}$PEPTIDE1,PEPTIDE1,1:R3-8:R3$$$V2.0”, in data set [1] (HPLC, scale of the general procedure 0.75 mmol, 1.4 mmol, 1.6 mmol), the “final HPLC purity” value was determined as 98.7%. Moreover, the isolated mass in data set [1] (scale 0.75 mmol) amounted to 92.9 mg. The crude mass in data set [2] was 730 mg.
